assay: general procedure: Fmoc solid-phase peptide synthesis; Fmoc-protected amino acid bonded resin, or Fmoc-protected resin; PyBOP-HOBT; settings: cyclisation step, CF3COOH salt

| Substance | cyclisation yield [%] |
| --- | --- |
| AcC*IDHLC* | 68 |
| C*ADHLC* | 59 |
| C*IDALC* | 52 |
| C*IDFIC* | 37 |
| C*IDFLC* | 50 |
| C*IDHIC* | 50 |
| C*IDHLC*—NH2 | 58 |
| C*IDHLC—OMe* | 35 |
| C*IDSLC* | 62 |
| C*IDTLC* | 70 |
| C*IDWLC* | 47 |
| C*IEHLC* | 71 |
| C*INHLC* | 85 |
| C*INHLC*—NH2 | 18 |
| C*IYHLC* | 52 |
| C*VDHLC* | 75 |
| Mpr*IDHLC* | 33 |
| Pen*IDHLC* | 30 |
| dC*IDHLC* | 39 |

same assay, conditions: cyclisation step, on linear precursor, CF3COOH salt

| Substance | cyclisation yield |
| --- | --- |
| C*IDHLC* | yield 73% |
| C*IDYLC* | yield 61% |

— patent publication US6511961B1 (Toray Industries, Inc., priority 1997, dated 2003)
